Laboratory results as given in patent US20170189504A1, “NOVEL PEPTIDES AND COMBINATION OF PEPTIDES FOR USE IN IMMUNOTHERAPY AGAINST VARIOUS CANCERS” (immatics biotechnologies GmbH, priority 2015, published 2017).
For part of these data: For expression read-outs the peptide stands for its source gene, whose mRNA was measured; the gene is not named for every peptide.

What was measured:
source genes (mRNA) = experiment: Gene and exon expression of source genes, TCGA tumor samples compared with normal tissue samples (Lonsdale, 2013) (Table 17); set-up: species or system human
HLA-A*02 = experiment: Identification and relative LC-MS quantitation of HLA-A*02-presented tumor-associated peptides on tissue samples (presentation profiles, Tables 13A, 13B, 15, FIG. 1); set-up: species or system human; key to Presentation score NHL / Presentation score CLL / Presentation score BRCA / Presentation score AML / Presentation score GB / Presentation score NSCLC / Presentation score GBC_CCC / Presentation score UEC / Presentation score MEL / Presentation score OSCAR / Presentation score GC / Presentation score UBC / Presentation score OC / Presentation score RCC / Presentation score CRC / Presentation score PCA / Presentation score HCC / Presentation score PC / Presentation score SCLC: specifically presented on tumors (++++); very highly over-presented on tumors compared to a panel of normal tissues (+++); highly over-presented on tumors compared to a panel of normal tissues (++); over-presented on tumors compared to a panel of normal tissues (+); settings: for Peptide Presentation on cancer entities: HLA-A*02-binding tumor-associated peptides

## 30: peptide found in OARD1 (gene looked up) (AMIEEVFEA; listed as Homo sapiens) [compound 30]
Source genes (mRNA); Acute Myeloid Leukemia (N = 173), cutoff more than 2-fold above highest 75% percentile of normal tissue samples
  Target coverage: over-expression category of source gene, LAML: A (>=50% of tumors above the cutoff)
Source genes (mRNA); Bladder urothelial carcinoma (N = 408), cutoff more than 2-fold above highest 75% percentile of normal tissue samples
  Target coverage: over-expression category of source gene, BLCA: B (>= 20% of tumors above the cutoff, but <50%)
Source genes (mRNA); Breast cancer (N = 1104), cutoff more than 2-fold above highest 75% percentile of high and medium risk normal tissue samples
  Target coverage: over-expression category of source gene, BRCA: A (>=50% of tumors above the cutoff)
Source genes (mRNA); Cholangiocarcinoma (N = 36), cutoff more than 2-fold above highest 75% percentile of normal tissue samples
  Target coverage: over-expression category of source gene, CHOL: A (>=50% of tumors above the cutoff)
Source genes (mRNA); Clear cell kidney carcinoma (N = 534), cutoff more than 2-fold above highest 75% percentile of normal tissue samples
  Target coverage: over-expression category of source gene, KIRC: A (>=50% of tumors above the cutoff)
Source genes (mRNA); Colon and rectal adenocarcinoma (N = 167), cutoff more than 2-fold above highest 75% percentile of normal tissue samples
  Target coverage: over-expression category of source gene, READ: A (>=50% of tumors above the cutoff)
Source genes (mRNA); Colon and rectal adenocarcinoma (N = 462), cutoff more than 2-fold above highest 75% percentile of normal tissue samples
  Target coverage: over-expression category of source gene, COAD: A (>=50% of tumors above the cutoff)
Source genes (mRNA); Esophageal cancer (N = 185), cutoff more than 2-fold above highest 75% percentile of normal tissue samples
  Target coverage: over-expression category of source gene, ESCA: B (>= 20% of tumors above the cutoff, but <50%)
Source genes (mRNA); Glioblastoma multiforme (N = 169), cutoff more than 2-fold above highest 75% percentile of normal tissue samples
  Target coverage: over-expression category of source gene, GBM: A (>=50% of tumors above the cutoff)
Source genes (mRNA); Kidney chromophobe (N = 66), cutoff more than 2-fold above highest 75% percentile of normal tissue samples
  Target coverage: over-expression category of source gene, KICH: A (>=50% of tumors above the cutoff)
Source genes (mRNA); Liver hepatocellular carcinoma (N = 374), cutoff more than 2-fold above highest 75% percentile of normal tissue samples
  Target coverage: over-expression category of source gene, LIHC: A (>=50% of tumors above the cutoff)
Source genes (mRNA); Lower grade glioma (N = 534), cutoff more than 2-fold above highest 75% percentile of normal tissue samples
  Target coverage: over-expression category of source gene, LGG: A (>=50% of tumors above the cutoff)
Source genes (mRNA); Lung adenocarcinoma (N = 517), cutoff more than 2-fold above highest 75% percentile of normal tissue samples
  Target coverage: over-expression category of source gene, LUAD: A (>=50% of tumors above the cutoff)
Source genes (mRNA); Lung squamous cell carcinoma (N = 503), cutoff more than 2-fold above highest 75% percentile of normal tissue samples
  Target coverage: over-expression category of source gene, LUSC: A (>=50% of tumors above the cutoff)
Source genes (mRNA); Lymphoid neoplasm diffuse large B-cell lymphoma (N = 48), cutoff more than 2-fold above highest 75% percentile of normal tissue samples
  Target coverage: over-expression category of source gene, DLBC: A (>=50% of tumors above the cutoff)
Source genes (mRNA); Ovarian serous cystadenocarcinoma (N = 309), cutoff more than 2-fold above highest 75% percentile of normal tissue samples
  Target coverage: over-expression category of source gene, OV: B (>= 20% of tumors above the cutoff, but <50%)
Source genes (mRNA); Pancreatic ductal adenocarcinoma (N = 179), cutoff more than 2-fold above highest 75% percentile of normal tissue samples
  Target coverage: over-expression category of source gene, PAAD: A (>=50% of tumors above the cutoff)
Source genes (mRNA); Papillary kidney carcinoma (N = 291), cutoff more than 2-fold above highest 75% percentile of normal tissue samples
  Target coverage: over-expression category of source gene, KIRP: A (>=50% of tumors above the cutoff)
Source genes (mRNA); Prostate adenocarcinoma (N = 498), cutoff more than 2-fold above highest 75% percentile of normal tissue samples
  Target coverage: over-expression category of source gene, PRAD: A (>=50% of tumors above the cutoff)
Source genes (mRNA); Skin cutaneous melanoma (N = 473), cutoff more than 2-fold above highest 75% percentile of normal tissue samples
  Target coverage: over-expression category of source gene, SKCM: A (>=50% of tumors above the cutoff)
Source genes (mRNA); Stomach adenocarcinoma (N = 415), cutoff more than 2-fold above highest 75% percentile of normal tissue samples
  Target coverage: over-expression category of source gene, STAD: A (>=50% of tumors above the cutoff)
Source genes (mRNA); Uterine corpus endometrial carcinoma (N = 546), cutoff more than 2-fold above highest 75% percentile of normal tissue samples
  Target coverage: over-expression category of source gene, UCEC: A (>=50% of tumors above the cutoff)
HLA-A*02; HLA-A*02 peptides, breast cancer (N = 17) vs panel of normal tissues (N = 262)
  Presentation score BRCA: +++
HLA-A*02; HLA-A*02 peptides, melanoma (N = 7) vs panel of normal tissues (N = 262)
  Presentation score MEL: +++
HLA-A*02; HLA-A*02 peptides, ovarian cancer (N = 20) vs panel of normal tissues (N = 262)
  Presentation score OC: +++
HLA-A*02; HLA-A*02 peptides, prostate cancer and benign prostate hyperplasia (N = 39) vs panel of normal tissues (N = 262)
  Presentation score PCA: +++
HLA-A*02; HLA-A*02 peptides, small cell lung cancer (N = 19) vs panel of normal tissues (N = 262)
  Presentation score SCLC: +++
HLA-A*02; HLA-A*02 peptides, urinary bladder cancer (N = 16) vs panel of normal tissues (N = 262)
  Presentation score UBC: +++
HLA-A*02; Table 13A, cancer entities on which the peptide was found presented
  Peptide Presentation on cancer entities: PCA, OC, SCLC, UBC, BRCA, MEL
HLA-A*02; Table 13B, presentation on additional cancer entities
  Peptide Presentation on cancer entities: NSCLC, HCC, UEC, GBC_CCC, NHL, HNSCC
